From article PMC11193767

The chains behind the UniProt entries cited, without tags or fusion partners.
UniProt Q8IWT6: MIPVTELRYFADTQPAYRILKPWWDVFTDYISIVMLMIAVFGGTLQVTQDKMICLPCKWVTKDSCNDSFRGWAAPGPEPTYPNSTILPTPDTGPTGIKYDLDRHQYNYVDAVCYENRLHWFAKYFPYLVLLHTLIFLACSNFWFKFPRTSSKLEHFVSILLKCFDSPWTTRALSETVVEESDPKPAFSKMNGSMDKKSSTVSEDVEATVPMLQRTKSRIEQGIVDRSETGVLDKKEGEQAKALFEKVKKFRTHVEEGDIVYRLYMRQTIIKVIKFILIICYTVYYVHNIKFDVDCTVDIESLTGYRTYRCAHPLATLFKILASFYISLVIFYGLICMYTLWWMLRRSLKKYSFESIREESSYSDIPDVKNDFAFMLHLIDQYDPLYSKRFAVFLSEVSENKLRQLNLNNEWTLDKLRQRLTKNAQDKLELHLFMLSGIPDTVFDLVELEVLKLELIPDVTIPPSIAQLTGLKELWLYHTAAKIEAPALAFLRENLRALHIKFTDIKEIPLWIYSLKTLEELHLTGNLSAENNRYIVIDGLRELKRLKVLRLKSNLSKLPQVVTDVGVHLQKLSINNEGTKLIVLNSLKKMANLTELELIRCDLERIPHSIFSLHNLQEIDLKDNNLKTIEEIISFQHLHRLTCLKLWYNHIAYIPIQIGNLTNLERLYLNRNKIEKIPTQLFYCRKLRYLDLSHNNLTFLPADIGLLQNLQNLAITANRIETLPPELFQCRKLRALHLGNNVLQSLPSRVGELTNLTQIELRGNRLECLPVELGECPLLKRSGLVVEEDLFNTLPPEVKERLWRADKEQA

These binders were tested against LRRC8A-BirA*-HA fusion protein (human) (UniProt Q8IWT6) (assay: proximity labelling; BioID: HEK293 cells stably expressing LRRC8A-BirA*-HA (two clones), 50 uM biotin 24 h, RIPA lysis, streptavidin bead pull-down of biotinylated proteins, TMT labelling and LC-MS/MS; hits: FDR <= 0.05 and fold change >= 2 against the no-biotin control).

Row | Binder | binding
1 | Synaptobrevin homolog YKT6 (protein, UniProt O15498-1 1-198) MKLYSLSVLYKGEAKVVLLKAAYDVSSFSFFQRSSVQEFMTFTSQLIVERSSKGTRASVKEQDYLCHVYVRNDSLAGVVIADNEYPSRVAFTLLEKVLDEFSKQVDRIDWPVGSPATIHYPALDGHLSRYQNPREADPMTKVQAELDETKIILHNTMESLLERGEKLDDLVSKSEVLGTQSKAFYKTARKQNSCCAIM | binds
2 | WW domain-containing oxidoreductase (protein, UniProt Q9NZC7-1 1-414) MAALRYAGLDDTDSEDELPPGWEERTTKDGWVYYANHTEEKTQWEHPKTGKRKRVAGDLPYGWEQETDENGQVFFVDHINKRTTYLDPRLAFTVDDNPTKPTTRQRYDGSTTAMEILQGRDFTGKVVVVTGANSGIGFETAKSFALHGAHVILACRNMARASEAVSRILEEWHKAKVEAMTLDLALLRSVQHFAEAFKAKNVPLHVLVCNAATFALPWSLTKDGLETTFQVNHLGHFYLVQLLQDVLCRSAPARVIVVSSESHRFTDINDSLGKLDFSRLSPTKNDYWAMLAYNRSKLCNILFSNELHRRLSPRGVTSNAVHPGNMMYSNIHRSWWVYTLLFTLARPFTKSMQQGAATTVYCAAVPELEGLGGMYFNNCCRCMPSPEAQSEETARTLWALSERLIQERLGSQSG | binds

Next, values leading:

Row | binding | Binder
3 | binds | Rho GTPase activating protein 39 (protein, UniProt Q9C0H5-2 1-1114) MSQTQDYECRSHNVDLPESRIPGSNTRLEWVEIIEPRTRERMYANLVTGECVWDPPAGVRIKRTSENQWWELFDPNTSRFYYYNASTQRTVWHRPQGCDIIPLAKLQTLKQNTESPRASAESSPGRGSSVSREGSTSSSLEPEPDTEKAQELPARAGRPAAFGTVKEDSGSSSPPGVFLEKDYEIYRDYSADGQLLHYRTSSLRWNSGAKERMLIKVADREPSFLAAQGNGYAPDGPPGVRSRRPSGSQHSPSLQTFAPEADGTIFFPERRPSPFLKRAELPGSSSPLLAQPRKPSGDSQPSSPRYGYEPPLYEEPPVEYQAPIYDEPPMDVQFEAGGGYQAGSPQRSPGRKPRPFLQPNKQGPPSPCQQLVLTKQKCPERFLSLEYSPAGKEYVRQLVYVEQAGSSPKLRAGPRHKYAPNPGGGSYSLQPSPCLLRDQRLGVKSGDYSTMEGPELRHSQPPTPLPQAQEDAMSWSSQQDTLSSTGYSPGTRKRKSRKPSLCQATSATPTEGPGDLLVEQPLAEEQPPCGTSLAPVKRAEGEAEGARGAAEPFLAQARLAWEAQQAHFHMKQRSSWDSQQDGSGYESDGALPLPMPGPVVRAFSEDEALAQQENRHWRRGTFEKLGFPQILLEKSVSVQTNLASPEPYLHPSQSEDLAACAQFESSRQSRSGVPSSSCVFPTFTLRKPSSETDIENWASKHFNKHTQGLFRRKVSIANMLAWSSESIKKPMIVTSDRHVKKEACELFKLIQMYMGDRRAKADPLHVALEVATKGWSVQGLRDELYIQLCRQTTENFRLESLARGWELMAICLAFFPPTPKFHSYLEGYIYRHMDPVNDTKVTQHIKELLERNTKKKSKLRKKPKPYVEEPDGVAISTYAKYCYHKLQKAALTGAKKGLKKPNVEEIRHAKNAVFSPSMFGSALQEVMGMQRERYPERQLPWVQTRLSEEVLALNGDQTEGIFRVPGDIDEVNALKLQVDQWKVPTGLEDPHVPASLLKLWYRELEEPLIPHEFYEQCIAHYDSPEAAVAVVHALPRINRMVLCYLIRFLQVFVQPANVAVTKMDVSNLAMVMAPNCLRCQSDDPRVIFENTRKEMSFLRVLIQHLDTSFMEGVL
4 | binds | WD repeat domain phosphoinositide-interacting protein 2 (protein, UniProt Q9Y4P8-1 1-454) MNLASQSGEAGAGQLLFANFNQDNTEVKGASRAAGLGRRAVVWSLAVGSKSGYKFFSLSSVDKLEQIYECTDTEDVCIVERLFSSSLVAIVSLKAPRKLKVCHFKKGTEICNYSYSNTILAVKLNRQRLIVCLEESLYIHNIRDMKVLHTIRETPPNPAGLCALSINNDNCYLAYPGSATIGEVQVFDTINLRAANMIPAHDSPLAALAFDASGTKLATASEKGTVIRVFSIPEGQKLFEFRRGVKRCVSICSLAFSMDGMFLSASSNTETVHIFKLETVKEKPPEEPTTWTGYFGKVLMASTSYLPSQVTEMFNQGRAFATVRLPFCGHKNICSLATIQKIPRLLVGAADGYLYMYNLDPQEGGECALMKQHRLDGSLETTNEILDSASHDCPLVTQTYGAAAGKGTYVPSSPTRLAYTDDLGAVGGACLEDEASALRLDEDSEHPPMILRTD

These are yes or no findings as the source states them, for the method shown. In cells and extracts the contact can be indirect. A yes stands for co-enrichment or nearness to the bait. Other partners may have been found.
